{"sequences": {"note": "Amino acid sequences for entries named in this document (tags omitted). A change or cut given only in a name is not applied to a line headed by its entry.", "UniProt O94923": "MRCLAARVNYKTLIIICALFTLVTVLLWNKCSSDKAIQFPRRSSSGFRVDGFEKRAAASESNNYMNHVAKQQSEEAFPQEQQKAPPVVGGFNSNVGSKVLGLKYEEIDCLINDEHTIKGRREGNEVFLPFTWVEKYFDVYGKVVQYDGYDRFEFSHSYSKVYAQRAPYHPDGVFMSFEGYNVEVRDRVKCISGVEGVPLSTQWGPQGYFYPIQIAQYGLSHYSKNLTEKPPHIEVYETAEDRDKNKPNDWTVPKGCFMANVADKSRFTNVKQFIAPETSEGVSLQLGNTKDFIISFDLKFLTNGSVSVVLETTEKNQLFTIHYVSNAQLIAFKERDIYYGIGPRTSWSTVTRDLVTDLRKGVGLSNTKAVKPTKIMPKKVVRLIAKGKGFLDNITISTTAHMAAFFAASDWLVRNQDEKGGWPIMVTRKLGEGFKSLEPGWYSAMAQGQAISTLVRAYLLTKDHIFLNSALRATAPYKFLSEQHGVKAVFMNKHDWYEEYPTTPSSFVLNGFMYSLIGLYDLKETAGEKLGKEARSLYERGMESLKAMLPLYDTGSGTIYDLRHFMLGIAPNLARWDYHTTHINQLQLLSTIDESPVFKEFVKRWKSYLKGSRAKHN", "UniProt Q14161": "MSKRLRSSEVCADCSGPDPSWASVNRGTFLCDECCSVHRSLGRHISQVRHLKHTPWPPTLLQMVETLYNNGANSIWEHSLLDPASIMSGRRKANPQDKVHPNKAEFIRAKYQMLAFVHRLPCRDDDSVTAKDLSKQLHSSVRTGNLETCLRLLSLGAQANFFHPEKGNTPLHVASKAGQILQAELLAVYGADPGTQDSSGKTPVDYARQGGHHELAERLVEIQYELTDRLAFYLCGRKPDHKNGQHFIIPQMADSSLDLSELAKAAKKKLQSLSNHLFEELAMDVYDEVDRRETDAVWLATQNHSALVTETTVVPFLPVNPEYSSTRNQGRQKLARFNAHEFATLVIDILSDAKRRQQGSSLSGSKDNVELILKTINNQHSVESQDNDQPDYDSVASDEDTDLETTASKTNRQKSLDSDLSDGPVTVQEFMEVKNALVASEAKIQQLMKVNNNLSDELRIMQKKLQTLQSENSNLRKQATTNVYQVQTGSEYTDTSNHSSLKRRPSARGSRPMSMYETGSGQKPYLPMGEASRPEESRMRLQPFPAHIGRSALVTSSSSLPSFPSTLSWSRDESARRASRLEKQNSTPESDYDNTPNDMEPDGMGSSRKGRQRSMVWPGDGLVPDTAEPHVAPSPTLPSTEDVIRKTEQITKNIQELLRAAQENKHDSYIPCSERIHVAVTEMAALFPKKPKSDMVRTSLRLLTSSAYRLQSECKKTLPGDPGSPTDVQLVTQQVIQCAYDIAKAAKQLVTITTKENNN", "UniProt Q5T7V8": "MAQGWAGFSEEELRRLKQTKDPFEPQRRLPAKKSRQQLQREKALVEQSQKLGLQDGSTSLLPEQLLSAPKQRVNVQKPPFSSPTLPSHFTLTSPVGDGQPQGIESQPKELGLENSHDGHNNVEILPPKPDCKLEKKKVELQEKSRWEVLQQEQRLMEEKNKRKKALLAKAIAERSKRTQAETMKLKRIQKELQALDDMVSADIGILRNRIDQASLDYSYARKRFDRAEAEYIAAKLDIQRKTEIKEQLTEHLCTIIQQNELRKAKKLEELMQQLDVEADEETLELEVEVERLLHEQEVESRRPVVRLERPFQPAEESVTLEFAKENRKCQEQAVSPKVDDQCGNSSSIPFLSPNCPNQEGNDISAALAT", "UniProt Q86SX6": "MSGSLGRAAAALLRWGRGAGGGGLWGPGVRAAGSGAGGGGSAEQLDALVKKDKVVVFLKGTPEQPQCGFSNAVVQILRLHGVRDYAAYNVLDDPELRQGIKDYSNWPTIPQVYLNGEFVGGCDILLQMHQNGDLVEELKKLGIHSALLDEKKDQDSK", "UniProt Q9HCL2": "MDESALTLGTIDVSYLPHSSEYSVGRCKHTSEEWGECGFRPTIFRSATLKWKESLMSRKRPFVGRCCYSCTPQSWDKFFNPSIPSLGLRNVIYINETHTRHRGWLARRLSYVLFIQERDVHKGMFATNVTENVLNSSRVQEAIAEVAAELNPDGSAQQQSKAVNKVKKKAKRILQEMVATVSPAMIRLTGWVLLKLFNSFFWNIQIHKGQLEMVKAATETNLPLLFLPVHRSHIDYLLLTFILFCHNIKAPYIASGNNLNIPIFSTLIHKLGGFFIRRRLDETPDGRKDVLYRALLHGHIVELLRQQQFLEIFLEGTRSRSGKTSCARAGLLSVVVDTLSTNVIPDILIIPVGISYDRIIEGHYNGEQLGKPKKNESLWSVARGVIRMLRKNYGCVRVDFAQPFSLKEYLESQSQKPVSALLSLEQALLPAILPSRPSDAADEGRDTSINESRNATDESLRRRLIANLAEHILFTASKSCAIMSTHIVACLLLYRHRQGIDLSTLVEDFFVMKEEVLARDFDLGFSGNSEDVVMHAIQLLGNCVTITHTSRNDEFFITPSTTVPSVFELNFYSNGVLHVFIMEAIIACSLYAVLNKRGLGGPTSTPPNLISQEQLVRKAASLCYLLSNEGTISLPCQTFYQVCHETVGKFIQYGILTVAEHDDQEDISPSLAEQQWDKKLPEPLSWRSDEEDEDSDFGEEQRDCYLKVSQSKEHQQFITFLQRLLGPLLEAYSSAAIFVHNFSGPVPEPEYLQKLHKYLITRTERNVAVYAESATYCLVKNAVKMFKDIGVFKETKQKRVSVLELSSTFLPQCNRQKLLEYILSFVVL", "UniProt Q13227": "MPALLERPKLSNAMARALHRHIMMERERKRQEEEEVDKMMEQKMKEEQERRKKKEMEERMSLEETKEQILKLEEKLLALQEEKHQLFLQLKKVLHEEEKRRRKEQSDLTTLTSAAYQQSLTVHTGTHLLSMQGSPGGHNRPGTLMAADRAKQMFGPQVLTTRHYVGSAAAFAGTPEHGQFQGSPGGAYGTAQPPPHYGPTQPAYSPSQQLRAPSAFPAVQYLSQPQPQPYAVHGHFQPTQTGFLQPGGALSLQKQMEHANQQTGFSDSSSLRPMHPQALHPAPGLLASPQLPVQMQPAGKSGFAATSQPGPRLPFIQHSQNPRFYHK", "UniProt O75420": "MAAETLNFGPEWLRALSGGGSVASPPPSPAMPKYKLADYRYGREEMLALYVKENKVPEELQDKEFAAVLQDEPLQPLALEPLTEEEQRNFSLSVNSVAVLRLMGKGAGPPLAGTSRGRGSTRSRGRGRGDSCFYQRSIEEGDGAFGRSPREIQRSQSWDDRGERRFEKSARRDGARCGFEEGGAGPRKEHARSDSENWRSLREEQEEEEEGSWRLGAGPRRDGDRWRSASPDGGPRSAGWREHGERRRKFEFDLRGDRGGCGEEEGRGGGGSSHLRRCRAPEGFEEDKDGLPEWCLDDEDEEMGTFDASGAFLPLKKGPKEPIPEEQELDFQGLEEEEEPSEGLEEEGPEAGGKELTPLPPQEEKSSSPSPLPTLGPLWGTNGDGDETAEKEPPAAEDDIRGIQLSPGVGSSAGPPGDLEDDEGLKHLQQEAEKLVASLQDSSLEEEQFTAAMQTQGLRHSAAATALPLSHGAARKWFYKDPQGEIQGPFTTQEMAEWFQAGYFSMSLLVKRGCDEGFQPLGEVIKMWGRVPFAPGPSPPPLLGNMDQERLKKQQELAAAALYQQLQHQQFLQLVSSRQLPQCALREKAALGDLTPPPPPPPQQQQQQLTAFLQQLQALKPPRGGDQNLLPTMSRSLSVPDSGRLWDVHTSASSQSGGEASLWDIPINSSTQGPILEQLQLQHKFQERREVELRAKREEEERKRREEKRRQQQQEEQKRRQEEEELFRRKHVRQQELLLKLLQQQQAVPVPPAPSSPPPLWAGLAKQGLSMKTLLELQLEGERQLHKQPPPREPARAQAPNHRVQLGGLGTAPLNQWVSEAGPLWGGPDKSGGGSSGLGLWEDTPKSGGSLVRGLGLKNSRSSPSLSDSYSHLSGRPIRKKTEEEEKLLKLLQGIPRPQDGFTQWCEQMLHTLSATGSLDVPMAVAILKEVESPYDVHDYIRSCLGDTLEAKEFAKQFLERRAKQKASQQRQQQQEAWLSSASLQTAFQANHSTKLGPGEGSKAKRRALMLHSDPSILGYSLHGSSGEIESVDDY", "UniProt Q9NPB8": "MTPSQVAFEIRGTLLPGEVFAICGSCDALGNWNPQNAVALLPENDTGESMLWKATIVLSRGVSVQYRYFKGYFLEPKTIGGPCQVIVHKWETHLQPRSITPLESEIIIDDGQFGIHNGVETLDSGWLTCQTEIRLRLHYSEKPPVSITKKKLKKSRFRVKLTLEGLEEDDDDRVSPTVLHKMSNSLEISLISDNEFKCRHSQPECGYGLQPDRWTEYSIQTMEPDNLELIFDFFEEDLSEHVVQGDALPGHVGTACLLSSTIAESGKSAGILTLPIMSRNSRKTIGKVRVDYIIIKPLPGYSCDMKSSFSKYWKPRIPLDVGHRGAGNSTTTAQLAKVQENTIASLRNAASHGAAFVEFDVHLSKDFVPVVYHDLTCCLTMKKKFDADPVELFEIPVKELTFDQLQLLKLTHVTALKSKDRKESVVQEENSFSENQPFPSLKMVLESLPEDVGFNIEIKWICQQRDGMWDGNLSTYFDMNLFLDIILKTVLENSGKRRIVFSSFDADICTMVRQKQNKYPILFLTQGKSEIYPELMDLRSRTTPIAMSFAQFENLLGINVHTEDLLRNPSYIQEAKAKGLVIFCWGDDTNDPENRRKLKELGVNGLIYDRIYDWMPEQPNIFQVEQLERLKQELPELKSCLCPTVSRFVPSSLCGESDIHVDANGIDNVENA", "UniProt I6L899": "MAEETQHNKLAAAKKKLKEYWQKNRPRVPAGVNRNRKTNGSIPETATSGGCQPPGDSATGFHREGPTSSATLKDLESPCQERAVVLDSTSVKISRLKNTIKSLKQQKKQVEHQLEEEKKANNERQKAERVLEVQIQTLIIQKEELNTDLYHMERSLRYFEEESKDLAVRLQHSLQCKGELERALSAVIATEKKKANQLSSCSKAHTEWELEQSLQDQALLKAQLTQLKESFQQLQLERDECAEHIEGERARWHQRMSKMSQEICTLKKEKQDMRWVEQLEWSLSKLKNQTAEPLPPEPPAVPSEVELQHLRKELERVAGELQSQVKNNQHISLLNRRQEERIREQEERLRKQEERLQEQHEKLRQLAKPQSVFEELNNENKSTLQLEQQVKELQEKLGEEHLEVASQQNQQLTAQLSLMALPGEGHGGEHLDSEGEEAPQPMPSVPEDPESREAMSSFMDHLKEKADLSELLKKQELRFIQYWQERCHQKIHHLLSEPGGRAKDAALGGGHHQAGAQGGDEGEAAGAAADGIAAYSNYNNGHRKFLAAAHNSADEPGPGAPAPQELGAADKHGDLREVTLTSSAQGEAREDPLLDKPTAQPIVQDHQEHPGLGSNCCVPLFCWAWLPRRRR", "UniProt Q9Y2X7": "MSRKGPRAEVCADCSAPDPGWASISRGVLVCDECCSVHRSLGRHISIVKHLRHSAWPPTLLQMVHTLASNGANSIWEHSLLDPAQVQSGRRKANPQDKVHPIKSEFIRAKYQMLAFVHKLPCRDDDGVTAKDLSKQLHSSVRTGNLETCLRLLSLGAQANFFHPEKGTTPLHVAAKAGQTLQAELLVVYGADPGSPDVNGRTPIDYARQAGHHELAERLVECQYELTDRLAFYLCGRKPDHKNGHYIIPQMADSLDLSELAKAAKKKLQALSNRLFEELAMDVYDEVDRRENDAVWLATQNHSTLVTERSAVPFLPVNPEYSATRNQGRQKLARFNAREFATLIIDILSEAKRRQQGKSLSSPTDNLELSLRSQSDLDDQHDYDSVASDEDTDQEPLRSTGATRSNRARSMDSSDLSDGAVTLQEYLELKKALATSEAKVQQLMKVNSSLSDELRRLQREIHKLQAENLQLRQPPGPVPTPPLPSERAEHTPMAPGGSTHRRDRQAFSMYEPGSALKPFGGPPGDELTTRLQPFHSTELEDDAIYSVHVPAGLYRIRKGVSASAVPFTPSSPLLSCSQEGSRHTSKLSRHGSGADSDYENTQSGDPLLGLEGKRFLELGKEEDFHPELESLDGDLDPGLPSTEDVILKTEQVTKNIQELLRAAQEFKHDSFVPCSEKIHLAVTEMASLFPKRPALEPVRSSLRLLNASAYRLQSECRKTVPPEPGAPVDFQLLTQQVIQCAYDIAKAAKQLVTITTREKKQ", "UniProt P22352, whole entry, looked up": "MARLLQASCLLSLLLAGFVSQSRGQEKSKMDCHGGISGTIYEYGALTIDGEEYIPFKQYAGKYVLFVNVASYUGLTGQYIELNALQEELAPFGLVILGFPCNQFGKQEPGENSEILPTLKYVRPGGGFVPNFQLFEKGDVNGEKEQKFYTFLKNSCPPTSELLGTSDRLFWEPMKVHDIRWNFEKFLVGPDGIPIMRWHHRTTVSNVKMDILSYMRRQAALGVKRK", "UniProt Q9H4G4": "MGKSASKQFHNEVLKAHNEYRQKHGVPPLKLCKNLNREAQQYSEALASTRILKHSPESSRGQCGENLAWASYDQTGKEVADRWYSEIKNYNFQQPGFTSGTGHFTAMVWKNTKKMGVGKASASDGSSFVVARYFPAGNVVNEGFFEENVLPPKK"}, "source": "the supplement of paper PMC10849652", "note": "The list shows a part of the results."}
{"compound": "Cc1ncc(-c2ccnc(Nc3ccc(S(C)(=O)=O)cc3)n2)n1C(C)C", "experiment": "log2 fold change, soluble protein after heating vs DMSO (PISA); higher = thermal stabilisation; K562 cells, 10 uM, 30 min; active = over 0.2 and 3.5 SD of the protein, either way, in both replicates (recomputed)", "in_short": "(§1)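 For each measurement, 10 μM compound was applied for 30 min to K562 cells at 2×10^6 cells/mL. Aliquots were heated for 3 min across 48°C-58°C, pooled, and extracted in PBS with 0.5% NP-40 at 4°C; the supernatant after 21,000xg for 90 min was soluble protein. This was quantified by TMTpro 16plex LC-MS/MS with channel sums equalised, and thermal stability was reported relative to control samples from duplicates, on a log2 fold-change scale.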"}
{"target": "GLCE (UniProt O94923)", "log2 fold change": "inactive: 0.169"}
{"target": "GMIP (UniProt Q9P107)", "log2 fold change": "inactive: -0.079"}
{"target": "GSE1 (UniProt Q14687)", "log2 fold change": "inactive: -0.096"}
{"target": "GIT2 (UniProt Q14161)", "log2 fold change": "inactive: 0.151"}
{"target": "GOLGA7B (UniProt Q2TAP0)", "log2 fold change": "inactive: 0.054"}
{"target": "GPSM3 (UniProt Q9Y4H4)", "log2 fold change": "inactive: -0.08"}
{"target": "GOLM1 (UniProt Q8NBJ4)", "log2 fold change": "inactive: 0.043"}
{"target": "GORAB (UniProt Q5T7V8)", "log2 fold change": "inactive: 0.005"}
{"target": "GLRX5 (UniProt Q86SX6)", "log2 fold change": "inactive: -0.026"}
{"target": "GLMP (UniProt Q8WWB7)", "log2 fold change": "inactive: 0.017"}
{"target": "GLT8D1 (UniProt Q68CQ7)", "log2 fold change": "inactive: -0.014"}
{"target": "GPR108 (UniProt Q9NPR9)", "log2 fold change": "inactive: -0.027"}
{"target": "GPAT3 (UniProt Q53EU6)", "log2 fold change": "inactive: 0.036"}
{"target": "GON4L (UniProt Q3T8J9)", "log2 fold change": "inactive: 0.033"}
{"target": "GPAM (UniProt Q9HCL2)", "log2 fold change": "inactive: -0.219"}
{"target": "GPS2 (UniProt Q13227)", "log2 fold change": "inactive: -0.074"}
{"compound": "Cn1cc(-c2ccc3c(c2)CCN3C(=O)Cc2cccc(C(F)(F)F)c2)c2c(N)ncnc21", "experiment": "log2 fold change, soluble protein after heating vs DMSO (PISA); higher = thermal stabilisation; K562 cells, 10 uM, 30 min; active = over 0.2 and 3.5 SD of the protein, either way, in both replicates (recomputed)", "in_short": "as §1"}
{"target": "GPATCH1 (UniProt Q9BRR8)", "log2 fold change": "inactive: -0.118"}
{"target": "GLCE (UniProt O94923)", "log2 fold change": "inactive: 0.038"}
{"target": "GIGYF1 (UniProt O75420)", "log2 fold change": "inactive: -0.108"}
{"target": "GMIP (UniProt Q9P107)", "log2 fold change": "inactive: 0.104"}
{"target": "GSE1 (UniProt Q14687)", "log2 fold change": "inactive: -0.009"}
{"target": "GLS2 (UniProt Q9UI32)", "log2 fold change": "inactive: 0.067"}
{"target": "GIT2 (UniProt Q14161)", "log2 fold change": "inactive: -0.087"}
{"target": "GOLGA7B (UniProt Q2TAP0)", "log2 fold change": "inactive: -0.002"}
{"target": "GPSM3 (UniProt Q9Y4H4)", "log2 fold change": "inactive: 0.075"}
{"target": "GOLM1 (UniProt Q8NBJ4)", "log2 fold change": "inactive: 0.211"}
{"target": "GLE1 (UniProt Q53GS7)", "log2 fold change": "inactive: -0.338"}
{"target": "GOSR1 (UniProt E9PCW1)", "log2 fold change": "inactive: 0.02"}
{"target": "GREB1 (UniProt Q4ZG55)", "log2 fold change": "inactive: 0.046"}
{"target": "GLRX5 (UniProt Q86SX6)", "log2 fold change": "inactive: 0.078"}
{"target": "GPCPD1 (UniProt Q9NPB8)", "log2 fold change": "inactive: -0.011"}
{"target": "GPR180 (UniProt Q86V85)", "log2 fold change": "inactive: 0.133"}
{"target": "GP6 isoform 3 (UniProt Q9HCN6)", "log2 fold change": "inactive: -0.09"}
{"target": "GLMP (UniProt Q8WWB7)", "log2 fold change": "inactive: 0.317"}
{"target": "GPT2 (UniProt Q8TD30)", "log2 fold change": "inactive: 0.107"}
{"target": "GOLGA8R (UniProt I6L899)", "log2 fold change": "inactive: 0.189"}
{"target": "GPR108 (UniProt Q9NPR9)", "log2 fold change": "inactive: 0.03"}
{"target": "GORASP1 (UniProt Q9BQQ3)", "log2 fold change": "inactive: 0.052"}
{"target": "GPAT3 (UniProt Q53EU6)", "log2 fold change": "inactive: -0.005"}
{"target": "GON4L (UniProt Q3T8J9)", "log2 fold change": "inactive: 0.053"}
{"target": "GIT1 isoform 3 (UniProt Q9Y2X7)", "log2 fold change": "inactive: -0.067"}
{"target": "GPX3 (UniProt P22352)", "log2 fold change": "inactive: 0.182"}
{"target": "GLIPR2 (UniProt Q9H4G4)", "log2 fold change": "inactive: 0.031"}
{"compound": "Cn1cc(-c2ccc3nnc(C(F)(F)c4ccc5ncccc5c4)n3n2)cn1", "experiment": "log2 fold change, soluble protein after heating vs DMSO (PISA); higher = thermal stabilisation; K562 cells, 10 uM, 30 min; active = over 0.2 and 3.5 SD of the protein, either way, in both replicates (recomputed)", "in_short": "as §1"}
{"target": "GIGYF1 (UniProt O75420)", "log2 fold change": "inactive: -0.23"}
{"target": "GPR68 (UniProt Q15743)", "log2 fold change": "inactive: 0.133"}
{"target": "GMIP (UniProt Q9P107)", "log2 fold change": "inactive: -0.02"}
{"target": "GOLGA1 (UniProt Q92805)", "log2 fold change": "inactive: 0.091"}
{"target": "GSE1 (UniProt Q14687)", "log2 fold change": "inactive: 0.012"}
{"target": "GOLGA7B (UniProt Q2TAP0)", "log2 fold change": "inactive: 0.054"}
{"target": "GOLM1 (UniProt Q8NBJ4)", "log2 fold change": "inactive: -0.119"}
{"target": "GORAB (UniProt Q5T7V8)", "log2 fold change": "inactive: 0.061"}
{"target": "GLRX5 (UniProt Q86SX6)", "log2 fold change": "inactive: 0.149"}
{"target": "GPCPD1 (UniProt Q9NPB8)", "log2 fold change": "inactive: -0.036"}
{"target": "GLMP (UniProt Q8WWB7)", "log2 fold change": "inactive: 0.005"}
{"target": "GOLGA8R (UniProt I6L899)", "log2 fold change": "inactive: 0.126"}
{"target": "GPR108 (UniProt Q9NPR9)", "log2 fold change": "inactive: -0.003"}
{"target": "GNL2 (UniProt Q13823)", "log2 fold change": "inactive: -0.036"}
{"target": "GPAT3 (UniProt Q53EU6)", "log2 fold change": "inactive: -0.007"}
{"target": "GPAM (UniProt Q9HCL2)", "log2 fold change": "inactive: -0.035"}
{"target": "GIT1 isoform 3 (UniProt Q9Y2X7)", "log2 fold change": "inactive: 0.273"}
{"target": "GPX3 (UniProt P22352)", "log2 fold change": "inactive: 0.038"}
{"target": "GPS2 (UniProt Q13227)", "log2 fold change": "inactive: 0.02"}
{"target": "GLIPR2 (UniProt Q9H4G4)", "log2 fold change": "inactive: 0.087"}
{"compound": "Cn1cncc1[C@@](N)(c1ccc(Cl)cc1)c1ccc2c(c1)c(-c1cccc(Cl)c1)cc(=O)n2C [tipifarnib]", "experiment": "log2 fold change, soluble protein after heating vs DMSO (PISA); higher = thermal stabilisation; K562 cells, 10 uM, 30 min; active = over 0.2 and 3.5 SD of the protein, either way, in both replicates (recomputed)", "in_short": "as §1"}
{"target": "GPATCH1 (UniProt Q9BRR8)", "log2 fold change": "inactive: 0.069"}
{"target": "GLCE (UniProt O94923)", "log2 fold change": "inactive: 0.143"}
{"target": "GIGYF1 (UniProt O75420)", "log2 fold change": "inactive: -0.058"}
{"target": "GOLGA1 (UniProt Q92805)", "log2 fold change": "inactive: -0.01"}
{"target": "GIT2 (UniProt Q14161)", "log2 fold change": "inactive: -0.147"}
{"target": "GOLGA7B (UniProt Q2TAP0)", "log2 fold change": "inactive: -0.029"}
{"target": "GPSM3 (UniProt Q9Y4H4)", "log2 fold change": "inactive: -0.018"}
{"target": "GOLM1 (UniProt Q8NBJ4)", "log2 fold change": "inactive: -0.084"}
{"target": "GOSR1 (UniProt E9PCW1)", "log2 fold change": "inactive: -0.204"}
{"target": "GORAB (UniProt Q5T7V8)", "log2 fold change": "inactive: -0.069"}
{"target": "GLRX5 (UniProt Q86SX6)", "log2 fold change": "inactive: -0.073"}
{"target": "GPCPD1 (UniProt Q9NPB8)", "log2 fold change": "inactive: -0.021"}
{"target": "GPR180 (UniProt Q86V85)", "log2 fold change": "inactive: -0.048"}
{"target": "GLMP (UniProt Q8WWB7)", "log2 fold change": "inactive: -0.002"}
{"target": "GPT2 (UniProt Q8TD30)", "log2 fold change": "inactive: -0.175"}
{"target": "GOLGA8R (UniProt I6L899)", "log2 fold change": "inactive: 0.287"}
{"target": "GPR108 (UniProt Q9NPR9)", "log2 fold change": "inactive: 0.04"}
{"target": "GORASP1 (UniProt Q9BQQ3)", "log2 fold change": "inactive: 0.006"}
{"target": "GPAT3 (UniProt Q53EU6)", "log2 fold change": "inactive: 0.023"}
{"target": "GON4L (UniProt Q3T8J9)", "log2 fold change": "inactive: -0.01"}
{"target": "GPAM (UniProt Q9HCL2)", "log2 fold change": "inactive: -0.047"}
{"target": "GIT1 isoform 3 (UniProt Q9Y2X7)", "log2 fold change": "inactive: -0.003"}
{"target": "GPX3 (UniProt P22352)", "log2 fold change": "inactive: 0.148"}
{"target": "GPS2 (UniProt Q13227)", "log2 fold change": "inactive: -0.033"}
{"target": "GLIPR2 (UniProt Q9H4G4)", "log2 fold change": "inactive: 0.019"}
